Mtb heat-shock: 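Assay on Mycobacterium tuberculosis, filed only as a heat shock assay from Cornell; the read-out is not stated. The concentration is filed as 10 mM, unlikely as a test dose, so the dose is not known. The record gives no direction; compounds that gave an IC50 in retests scored well above the rest, so higher reads as stronger inhibition. Of about 69,000 compounds tested this way, about 930 (1.4%) reached 50% or more in at least one test.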
Mtb growth Cornell: 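Whole-cell assay for inhibitors of Mycobacterium tuberculosis growth, labelled Cornell in the record; the read-out is not stated. The concentration is filed as 10 mM, unlikely as a test dose, so the dose is not known. The record gives no direction; compounds strong in two other growth screens of this library score well above the rest, so higher reads as stronger inhibition. About 53,000 compounds were tested under these conditions; 1.7% (about 900) showed 50% or more at least once.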

The filed quantity is “Percent Effect” (%). The controls that fix the scale are not given in the record; negative values are as filed. The compounds are a random part of those screened. A dash means the value is not listed here; it may have been measured.

| # | Compound | Mtb heat-shock | Mtb growth Cornell |
|---|---|---|---|
| 1 | `Cc1ccc(C(CNCc2c[nH]nc2C)N(C)C)cc1.Cl` (stereo not given) | -5.401% | -33.37% |
| 2 | `O=C(CNC(=O)C1CC1)NCC(F)(F)F` | 14.17% | 2.646% |
| 3 | `COCCN1CCCC2(CCN(c3nccc4ccccc34)C2)C1=O` (stereo not given) | 30.18% | - |
| 4 | `CC(C(=O)NCc1ccc(-n2cncn2)nc1)S(C)(=O)=O` (stereo not given) | 2.167% | -33.86% |
| 5 | `Cc1cnc(C(=O)N2CCCC(Cn3cc(CC(C)C)nn3)C2)cn1` (stereo not given) | 0.2995% | 5.129% |
| 6 | `Cc1nn(C)c(N2CCOCC2)c1CNCc1ccccc1CO` | 6.679% | - |
| 7 | `Cn1ccnc1CN1CCC2(CC1)Cc1ccccc1CNC2=O.O=C(O)C(F)(F)F` | 0.2886% | 9.887% |
| 8 | `O=C(c1ccnnc1)N1CC[C@@H](O)[C@@H]1Cc1ccccc1` | 4.421% | -23.76% |
| 9 | `COc1ccccc1OCCCN1CC=C(c2cnn(C)c2)CC1` | 11.02% | 21.43% |
| 10 | `OCCN1CCCCC1c1cc[nH]n1` (stereo not given) | -3.704% | -18.2% |
| 11 | `O=C(O)C(F)(F)F.[H][C@]12C[C@H](CN(C)C)O[C@@]1([H])CN(C(=O)c1ccno1)C2` | -18.34% | 20.55% |
| 12 | `COCCN1CCCC2(CCN(c3nc(C)nc4c3CCC4)C2)C1=O` (stereo not given) | -4.731% | 23.3% |
| 13 | `Cc1ccccc1-n1cc(-c2ccnc(N3CCCC(O)C3)n2)cn1` (stereo not given) | 0.7216% | - |
| 14 | `CC(C)(C)n1nc(C2CC2)cc1C(=O)NCC1(C(N)=O)CCOCC1` | -11.11% | -28.75% |
| 15 | `N#Cc1cccnc1N1CCCN(C(=O)CCn2cccn2)CC1` | -7.748% | -67.44% |
| 16 | `NS(=O)(=O)c1cc(C(=O)N2CCCCC2)cs1` | 2.631% | 33.04% |
| 17 | `COc1ncc(-c2nccn2C(C)CCn2cccn2)cn1` (stereo not given) | 6.409% | - |
| 18 | `O=C(c1ncoc1C1CCCO1)N1CC2(CCCC2)c2ccccc21` (stereo not given) | -0.02222% | 27.82% |
| 19 | `CCOC(=O)c1nc(CN2CCC(NC(=O)C(C)C)CC2)cs1` | 1.566% | -30.59% |
| 20 | `CC(c1nc(C2CC2)no1)N1CCN(Cc2noc(C3CC3)n2)CC1` (stereo not given) | 5.857% | - |
| 21 | `CCc1nc2n(n1)CC(NCC(=O)Nc1cc(C)nn1C)CC2` (stereo not given) | -12.22% | - |
| 22 | `CN1C(=O)C(c2cccnc2)CC12CCN(CCO)CC2` (stereo not given) | 20.78% | 4.145% |
| 23 | `CN(C)CCOc1cccc(CN2CCCC3(C2)CN(C)C(=O)O3)c1` (stereo not given) | -20.36% | -13.5% |
| 24 | `Cc1nn(Cc2ccc(C(=O)NCCCN3CCCC3=O)o2)c(C)c1Br` | -0.4948% | 13.78% |
| 25 | `CN(C)CC1(O)CCCN(C(=O)c2cnc(-c3ccccn3)nc2)C1` (stereo not given) | 9.602% | 9.083% |
| 26 | `O=C(Cc1cccc(F)c1)NCCNCc1cccnc1` | -6.46% | -14.12% |
| 27 | `CCc1nnc(CN2CCOC(Cn3cc(C)cn3)C2)o1` (stereo not given) | 7.771% | -10.27% |
| 28 | `COC(=O)CCCn1ccnc1C(C)c1ccccc1` (stereo not given) | -41.06% | -23.55% |
| 29 | `Cc1ncoc1C(=O)N1CC[C@@]2(C[C@H](NS(C)(=O)=O)CCO2)C1` | 4.614% | 12.78% |
| 30 | `CCNc1cc2c(nn1)CCN(C(=O)c1ccc3c(c1)OCO3)C2` | 1.887% | - |
| 31 | `[H][C@]12CC[C@]([H])(CN(C3Cc4ccccc4C3)C1)N(Cc1cc(C)no1)C2` | 16.59% | - |
| 32 | `O=C(O)C(F)(F)F.[H][C@@]12CN(CC3CC3)C[C@]1([H])[C@@H](OC)CCN2C(=O)Cc1ccsc1` | -6.3% | 26.36% |
| 33 | `Cc1cc(C(F)F)nn1C(C)C(=O)NCc1ncc[nH]1` (stereo not given) | 7.068% | 51.24% |
| 34 | `CO[C@H]1CN(C(=O)c2ccc3oc(C)cc3c2)C[C@@]12CCCO2` | -10.82% | - |
| 35 | `COCc1noc(Cn2c(C3CC3)nc3ccccc32)n1` | -9.118% | -12.91% |
| 36 | `Cc1cccnc1CN(C)c1ncnc2[nH]ccc12` | -21.04% | 23% |
| 37 | `CCC(CO)N(Cc1cccc(-n2cccn2)c1)Cc1ccccn1` (stereo not given) | -13.93% | 2.864% |
| 38 | `Cc1cccc(NC(=O)Cc2cnc3n(C)c(=O)[nH]c(=O)n23)c1` | -14.45% | - |
| 39 | `CSc1ccc(C(=O)N(c2ccc(F)cn2)C2CCOCC2)o1` | -15.55% | -27.33% |
| 40 | `O=C(NC(CO)CO)c1coc(COc2cccc(F)c2)n1` | -6.936% | -12.31% |
| 41 | `COc1cccc2cc(CNC(=O)N3CCC(N4CCCC4)C3)oc12` (stereo not given) | -7.044% | - |
| 42 | `c1ncn(CC2CN(Cc3noc(C4CC4)n3)CCO2)n1` (stereo not given) | -11.95% | - |
| 43 | `CC(C(=O)N1CCCC1)S(=O)(=O)Cc1noc(C(C)(C)C)n1` (stereo not given) | -16.88% | 11.61% |
| 44 | `[H][C@@]12CNC[C@]1([H])CN(C(=O)c1cc(-c3ccco3)nc3c(Cl)cccc13)C2` | -5.728% | 6.87% |
| 45 | `CNC(=O)CN1CCC12CCN(C(=O)Cc1ccccc1)C2.O=C(O)C(F)(F)F` (stereo not given) | -10.38% | 20.47% |
| 46 | `Cc1ccc(C)n1-c1c(C(=O)NCC(C)Cn2cccn2)cnn1C` (stereo not given) | -11.92% | 27.46% |
| 47 | `COCCO[C@H]1CCN(C(=O)c2cnoc2C)[C@H]1Cc1cnn(C)c1` | 7.113% | -21.47% |
| 48 | `CCc1nc(CN(C)C2CCN(Cc3nc(C4CC4)no3)C2)no1` (stereo not given) | -17.11% | -44.34% |
| 49 | `O=C(NCCNc1ccccn1)N1CCC(O)CC1` | 16.48% | - |
| 50 | `Cc1cc(C)c(CNC(=O)NCc2ccc(F)cc2)c(=O)[nH]1` | -9.539% | - |
| 51 | `CC(C)N(Cc1nc2c(cnn2C)c(=O)[nH]1)c1ccccc1` | 45.93% | 16.87% |
| 52 | `COc1ncccc1C(=O)N1CCC(Nc2ccc(C)nn2)CC1` | -0.301% | - |
| 53 | `COCC(=O)NCc1cc(=O)n2c(n1)CN(CC1CC1)CCC2.O=C(O)C(F)(F)F` | 0.2802% | -3.714% |
| 54 | `CS(=O)(=O)NC[C@H]1Cn2c(-c3ccc(F)cc3)cnc2CO1` | -16.39% | 9.562% |
| 55 | `COc1ccc(-c2nc(CNC3CCc4nc(C)nn4C3)no2)cc1` (stereo not given) | -13.29% | 4.393% |
| 56 | `[H][C@@]12C[C@@H](C)O[C@]1([H])CN(C(=O)c1ccncn1)C2` | -30.62% | -10.03% |
| 57 | `CN1CCN(Cc2cccnc2)C2(CCN(c3ncc(F)cn3)C2)C1=O.O=C(O)C(F)(F)F.O=C(O)C(F)(F)F` (stereo not given) | -39.68% | -42.71% |
| 58 | `Cc1ccc2c(c1)C(NC(=O)N(C)C)CC21CCN(CC2CC2)CC1.O=C(O)C(F)(F)F` (stereo not given) | -3.475% | 28.73% |
| 59 | `Cc1ccccc1CSc1nc(N)cc(N2CCC(CC(N)=O)CC2)n1` | 9.919% | - |
| 60 | `CNS(=O)(=O)CCCN1CCN(C(C#N)c2ccccc2)CC1` (stereo not given) | 1.227% | 11.63% |
| 61 | `Clc1ccc2cccnc2c1CN1CCCC(Cn2cncn2)C1` (stereo not given) | 18.36% | 13.52% |
| 62 | `Cc1nc(C2CCN(C(=O)c3cc(C4CC4)[nH]n3)CC2)no1` | -7.743% | - |
| 63 | `Cc1noc(C)c1C(=O)N1CCCC1c1c(C)nn(C)c1C` (stereo not given) | -16.43% | - |
| 64 | `O=C(NCCO)Nc1cnc2cc(Cl)ccc2c1O` | -3.589% | 103.7% |
| 65 | `O=C(c1cccnc1N1CCOCC1)N1CCCC(n2ccnc2)C1` (stereo not given) | 8.907% | - |
| 66 | `CCN(CCC1CCN(C(=O)NCc2nncn2CC)CC1)CC1CC1` | -13.17% | -31.81% |
| 67 | `CN(C)CCOCC1CN(Cc2ccsc2)Cc2nnn(C)c21.O=C(O)C(F)(F)F.O=C(O)C(F)(F)F` (stereo not given) | -15.02% | - |
| 68 | `O=C(NCc1ccccc1)N1CCn2c(Cn3cccn3)cnc2C1` | -9.89% | 2.149% |
| 69 | `O=C(NC[C@H]1OC[C@@H](NCc2cccs2)[C@@H]1O)N1CCOCC1` | -23.26% | -38.8% |
| 70 | `O=C(COc1ccc(Cl)cc1Cl)N1CCCSCC1CN1CCOCC1` (stereo not given) | 16.17% | 25.05% |
| 71 | `Cc1ccc2oc(=O)n(CCC(=O)N3CCCC4(CNC(=O)O4)C3)c2c1` (stereo not given) | 6.426% | -19.45% |

Data taken from ChEMBL document CHEMBL3988442, “University of Dundee, Small-Polar-MMV Screening Library” (2021).